Laboratory results as given in publication PMC11254748.

Amino acid sequences for entries named in this document (tags omitted).
UniProt O60934: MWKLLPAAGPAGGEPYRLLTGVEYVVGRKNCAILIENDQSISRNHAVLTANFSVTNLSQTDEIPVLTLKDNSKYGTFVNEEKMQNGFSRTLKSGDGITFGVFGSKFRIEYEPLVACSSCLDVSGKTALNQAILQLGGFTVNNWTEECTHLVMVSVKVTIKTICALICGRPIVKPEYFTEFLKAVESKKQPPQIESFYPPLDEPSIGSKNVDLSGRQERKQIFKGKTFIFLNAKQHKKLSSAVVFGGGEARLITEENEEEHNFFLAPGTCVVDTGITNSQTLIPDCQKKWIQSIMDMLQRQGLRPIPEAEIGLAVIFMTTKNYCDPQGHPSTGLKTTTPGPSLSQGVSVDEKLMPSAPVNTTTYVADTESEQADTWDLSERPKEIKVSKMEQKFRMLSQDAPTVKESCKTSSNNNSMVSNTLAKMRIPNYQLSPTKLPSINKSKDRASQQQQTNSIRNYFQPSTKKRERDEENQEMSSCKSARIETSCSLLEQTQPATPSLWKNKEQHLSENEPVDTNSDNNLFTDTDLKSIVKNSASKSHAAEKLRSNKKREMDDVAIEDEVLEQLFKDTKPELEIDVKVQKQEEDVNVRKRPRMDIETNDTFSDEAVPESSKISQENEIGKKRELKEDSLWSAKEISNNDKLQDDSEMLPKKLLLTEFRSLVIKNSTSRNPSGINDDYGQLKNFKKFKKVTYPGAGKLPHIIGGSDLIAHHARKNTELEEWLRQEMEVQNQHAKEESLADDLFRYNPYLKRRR
UniProt Q92993: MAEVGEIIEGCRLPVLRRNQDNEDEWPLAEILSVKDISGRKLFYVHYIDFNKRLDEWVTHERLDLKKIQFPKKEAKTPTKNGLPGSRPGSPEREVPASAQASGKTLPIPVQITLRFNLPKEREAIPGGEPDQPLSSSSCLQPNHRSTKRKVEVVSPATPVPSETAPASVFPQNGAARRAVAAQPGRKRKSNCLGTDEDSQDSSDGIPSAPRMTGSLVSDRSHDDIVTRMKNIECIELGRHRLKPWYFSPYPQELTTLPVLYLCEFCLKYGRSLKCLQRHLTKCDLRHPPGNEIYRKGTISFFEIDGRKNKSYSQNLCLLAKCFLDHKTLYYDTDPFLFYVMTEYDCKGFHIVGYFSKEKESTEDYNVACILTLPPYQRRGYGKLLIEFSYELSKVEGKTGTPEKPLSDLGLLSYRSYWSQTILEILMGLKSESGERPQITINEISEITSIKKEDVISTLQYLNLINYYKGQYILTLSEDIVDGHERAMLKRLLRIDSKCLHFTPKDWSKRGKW

Biological target: NBS1 (endogenous, wild type, AGS-P cells) (human (endogenous in AGS)) (UniProt O60934)
Assay: affinity purification with mass spectrometry; immunoprecipitation with anti-NBS1 from AGS-P cell lysates, eluted samples analysed by LC–MS/MS

binding: binds
Molecule: TIP60 (endogenous, AGS-P cells) (from UniProt Q92993 1-513) (enzyme)

binding: binds
B1: TCOF1 (endogenous, AGS-P cells) (protein, UniProt Q13428 1-1488)
chain: MAEARKRRELLPLIYHHLLRAGYVRAAREVKEQSGQKCFLAQPVTLLDIYTHWQQTSELGRKRKAEEDAALQAKKTRVSDPISTSESSEEEEEAEAETAKATPRLASTNSSVLGADLPSSMKEKAKAETEKAGKTGNSMPHPATGKTVANLLSGKSPRKSAEPSANTTLVSETEEEGSVPAFGAAAKPGMVSAGQADSSSEDTSSSSDETDVEGKPSVKPAQVKASSVSTKESPARKAAPAPGKVGDVTPQVKGGALPPAKRAKKPEEESESSEEGSESEEEAPAGTRSQVKASEKILQVRAASAPAKGTPGKGATPAPPGKAGAVASQTKAGKPEEDSESSSEESSDSEEETPAAKALLQAKASGKTSQVGAASAPAKESPRKGAAPAPPGKTGPAVAKAQAGKREEDSQSSSEESDSEEEAPAQAKPSGKAPQVRAASAPAKESPRKGAAPAPPRKTGPAAAQVQVGKQEEDSRSSSEESDSDREALAAMNAAQVKPLGKSPQVKPASTMGMGPLGKGAGPVPPGKVGPATPSAQVGKWEEDSESSSEESSDSSDGEVPTAVAPAQEKSLGNILQAKPTSSPAKGPPQKAGPVAVQVKAEKPMDNSESSEESSDSADSEEAPAAMTAAQAKPALKIPQTKACPKKTNTTASAKVAPVRVGTQAPRKAGTATSPAGSSPAVAGGTQRPAEDSSSSEESDSEEEKTGLAVTVGQAKSVGKGLQVKAASVPVKGSLGQGTAPVLPGKTGPTVTQVKAEKQEDSESSEEESDSEEAAASPAQVKTSVKKTQAKANPAAARAPSAKGTISAPGKVVTAAAQAKQRSPSKVKPPVRNPQNSTVLARGPASVPSVGKAVATAAQAQTGPEEDSGSSEEESDSEEEAETLAQVKPSGKTHQIRAALAPAKESPRKGAAPTPPGKTGPSAAQAGKQDDSGSSSEESDSDGEAPAAVTSAQVIKPPLIFVDPNRSPAGPAATPAQAQAASTPRKARASESTARSSSSESEDEDVIPATQCLTPGIRTNVVTMPTAHPRIAPKASMAGASSSKESSRISDGKKQEGPATQVSKKNPASLPLTQAALKVLAQKASEAQPPVARTQPSSGVDSAVGTLPATSPQSTSVQAKGTNKLRKPKLPEVQQATKAPESSDDSEDSSDSSSGSEEDGEGPQGAKSAHTLGPTPSRTETLVEETAAESSEDDVVAPSQSLLSGYMTPGLTPANSQASKATPKLDSSPSVSSTLAAKDDPDGKQEAKPQQAAGMLSPKTGGKEAASGTTPQKSRKPKKGAGNPQASTLALQSNITQCLLGQPWPLNEAQVQASVVKVLTELLEQERKKVVDTTKESSRKGWESRKRKLSGDQPAARTPRSKKKKKLGAGEGGEASVSPEKTSTTSKGKAKRDKASGDVKEKKGKGSLGSQGAKDEPEEELQKGMGTVEGGDQSNPKSKKEKKKSDKRKKDKEKKEKKKKAKKASTKDSESPSQKKKKKKKKTAEQTV

These are yes or no findings as the source states them, for the method shown. In cells and extracts the contact can be indirect. These calls come from enrichment with a bait or labelling near it, and not all partners need be listed. One block for each molecule: values may come before it.
